## Screening data

The results are deposited in PubChem (AID912; NCATS, 2007).

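A cell-based FRET test of anthrax lethal toxin entry, tracked through the 460 nm emission signal; the cell line is not named here.
Each compound was tested as a concentration series from about 0.0005 to 40 µM.
The number is the fitted AC50 of the 460 nm signal alone; lower values mean a more potent effect. A falling signal goes with compounds filed as inhibitors or cytotoxic, a rising one with activators or fluorescent compounds (inferred from the filed classes).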

Values are in µM.
Common to all entries: measured here: 460 nm channel.
Part of the compounds only, not a random draw; the main read-out is not listed here.
Potencies fitted to partial, single-point or poorly fitting curves are rough.
The first word of each remark tells which way the curve ran; it can be opposite to the aim of the assay.

| compound | AC50 (µM) | remark |
|---|---|---|
| `COc1cccc(C(=O)c2cc3ccc(O)cc3oc2=O)c1` | 0.03162 | rising, full curve |
| `Cc1noc(C)c1C(=O)N1CCC2(CCCN(Cc3ccc(C#N)cc3)C2)CC1` | 0.005012 | rising, full curve, poor fit |
| `CCCCC(C=O)NC(=O)C(CC(C)C)NC(=O)OCc1ccccc1` (configuration not stated) | 12.59 | falling, single point |
| `COc1cccc(OCC(=O)Nc2ccc(OC)c(OC)c2)c1` | 3.981 | falling, partial curve, poor fit |
| `Nc1nc2ccc(OC(F)(F)F)cc2s1` | 31.62 | falling, single point |
| `NC(N)=NN=Cc1c(Cl)cccc1Cl` | 3.981 | rising, partial curve, poor fit |
| `CCN1C(=O)CS/C1=C(\C#N)S(=O)(=O)c1ccccc1` | 5.012 | rising, single point |
| `CCOC(=O)c1c(C)n(C)c2ccc(OCC(O)Cn3c(C)nc4ccccc43)cc12` (configuration not stated) | 31.62 | falling, single point |
| `CCCC(c1cc(C(C)(C)C)c(O)cc1C)c1cc(C(C)(C)C)c(O)cc1C` | 3.162 | falling, single point |
| `CCN(CC)c1ccc(NC(=O)CC2Oc3ccccc3NC2=O)c(C)c1` (configuration not stated) | 7.943 | falling, partial curve |
| `O=C(CSc1ncnc2c1oc1ccccc12)NCc1ccco1` | 1.585 | falling, partial curve |
| `Cc1ccc(-n2c(O)c(C=NCc3cccnc3)c(=O)[nH]c2=O)cc1C` | 0.01259 | falling, full curve, poor fit |
| `Cc1c(C(=O)NCc2ccc3c(c2)OCO3)oc2ccccc12` | 12.59 | falling, partial curve |
| `COc1ccc(N(CC(=O)N2CC=C(c3ccccc3)CC2)S(=O)(=O)c2c(C)noc2C)cc1` | 10 | falling, partial curve |
| `O=C(Nc1ccc2nn(-c3ccccc3)nc2c1)c1ccc2c(c1)OCCO2` | 1 | falling, full curve |
| `COc1ccc(OCC(=O)Nc2cccc(OC)c2)cc1` | 31.62 | rising, single point |
| `COC(=O)c1cc(Br)c(=O)n(CCc2ccccc2)c1` | 3.162 | rising, partial curve |
| `O=C(Sc1nnc(-c2ccccc2)o1)N1c2ccccc2Sc2ccccc21` | 6.31 | falling, full curve |
| `NCC(CC(=O)O)c1ccc(Cl)cc1` (configuration not stated) | 6.31 | rising, partial curve |
| `CN(C)c1ncc2nc(-c3cccc(C#N)c3)c(=O)n(C)c2n1` | 10 | rising, partial curve |
| `COc1ccc(CNc2nc(SC)n[nH]2)cc1OC` | 19.95 | rising, partial curve, poor fit |
| `O=C(c1ccco1)N1CCN(S(=O)(=O)c2ccc3c(c2)CCN3C(=O)C2CCC2)CC1` | 5.012 | rising, partial curve |
| `Cc1ccc2ccc3cccc4ccc1c2c34` | 10 | falling, partial curve |
| `Cc1ccc(S(=O)(=O)N2CCC(C(=O)NCCCN3CCCCCC3)CC2)cc1` | 0.3981 | rising, partial curve |
| `O=C1NC(=S)NC(=O)C1=Cc1cccc2cc3ccccc3cc12` | 3.162 | falling, single point |
| `CC(C)(C)NC(=O)CN(C(=O)C1CSC(=O)C1)c1ccc2c(c1)OCCO2` (configuration not stated) | 0.1259 | rising, full curve, poor fit |
| `COc1ccc2c(c1)N(C)C(=O)CC(c1ccccc1)=N2` | 1.585 | rising, partial curve, poor fit |
| `COC(=O)c1ccc(NC(=O)CN(c2ccc(OC)cc2)S(C)(=O)=O)cc1` | 5.012 | rising, single point |
| `O=C1C(SCCO)=C(SCCO)C(=O)c2ccccc21` | 0.631 | falling, full curve |
| `COc1cc(C2c3c(n[nH]c3C)C(=O)N2c2ccc(C)cc2)ccc1O` (configuration not stated) | 0.3981 | falling, single point |
| `CCc1c(C)sc(NC(=O)c2cccs2)c1C(=O)OC(C)C` | 6.31 | falling, partial curve |
| `COc1cc(NC(=O)c2cc(-c3cccs3)on2)cc(OC)c1OC` | 31.62 | falling, single point |
| `COc1cccc(-c2nc(Nc3ccncc3)c3ccccc3n2)c1` | 25.12 | rising, partial curve |
| `CCn1cc(C(=O)O)c(=O)c2ccc(Cc3ccccc3)nc21` | 0.000631 | rising, full curve, poor fit |
| `Cc1nc2ccccc2c2oc(C(=O)N3CCC(N4CCCCC4)CC3)cc12` | 10 | falling, partial curve |
| `CC1(c2ccc3noc(-c4ccc(Cl)cc4)c3c2)OCCO1` | 0.02512 | rising, full curve |
| `Cc1ccc2cc3cc(C(=O)NCCCN4CCCCCC4)oc3nc2c1` | 31.62 | falling, single point |
| `O=C(NCCN1CCCC1)c1ccc2c(c1)N(Cc1ccc(F)cc1)C(=O)c1ccccc1S2=O` (configuration not stated) | 31.62 | falling, single point |
| `CCOC(=O)c1cccc2c1-c1ccccc1/C2=N/O` | 31.62 | falling, single point |
| `COC(=O)c1[nH]c2ccc(C)cc2c1NS(=O)(=O)c1ccc(F)c(C)c1` | 31.62 | falling, single point |
| `CCOC(=O)c1c(NC(=O)c2ccc(Br)o2)sc2c1CCCC2` | 3.981 | rising, partial curve |
| `CC[C@]1(O)C[C@H]2CN(CCc3c([nH]c4ccccc34)[C@](C(=O)OC)(c3cc4c(cc3OC)N(C=O)[C@H]3[C@@](O)(C(=O)OC)[C@H](OC(C)=O)[C@@]5(CC)C=CCN6CC[C@]43[C@H]65)C2)C1` | 0.05012 | falling, full curve |

Some entries from above, unchanged:

| compound | AC50 (µM) | remark |
|---|---|---|
| `COc1cc(C2c3c(n[nH]c3C)C(=O)N2c2ccc(C)cc2)ccc1O` (configuration not stated) | 0.3981 | falling, single point |
| `Cc1noc(C)c1C(=O)N1CCC2(CCCN(Cc3ccc(C#N)cc3)C2)CC1` | 0.005012 | rising, full curve, poor fit |
| `CCCC(c1cc(C(C)(C)C)c(O)cc1C)c1cc(C(C)(C)C)c(O)cc1C` | 3.162 | falling, single point |